Test [1] has as its target Flag-tagged MAVS (UniProt Q7Z434). The test is described as follows: co-IP.
Test [2] addresses T1, Flag-tagged TBK1 (UniProt Q9UHD2).
T1 sequence: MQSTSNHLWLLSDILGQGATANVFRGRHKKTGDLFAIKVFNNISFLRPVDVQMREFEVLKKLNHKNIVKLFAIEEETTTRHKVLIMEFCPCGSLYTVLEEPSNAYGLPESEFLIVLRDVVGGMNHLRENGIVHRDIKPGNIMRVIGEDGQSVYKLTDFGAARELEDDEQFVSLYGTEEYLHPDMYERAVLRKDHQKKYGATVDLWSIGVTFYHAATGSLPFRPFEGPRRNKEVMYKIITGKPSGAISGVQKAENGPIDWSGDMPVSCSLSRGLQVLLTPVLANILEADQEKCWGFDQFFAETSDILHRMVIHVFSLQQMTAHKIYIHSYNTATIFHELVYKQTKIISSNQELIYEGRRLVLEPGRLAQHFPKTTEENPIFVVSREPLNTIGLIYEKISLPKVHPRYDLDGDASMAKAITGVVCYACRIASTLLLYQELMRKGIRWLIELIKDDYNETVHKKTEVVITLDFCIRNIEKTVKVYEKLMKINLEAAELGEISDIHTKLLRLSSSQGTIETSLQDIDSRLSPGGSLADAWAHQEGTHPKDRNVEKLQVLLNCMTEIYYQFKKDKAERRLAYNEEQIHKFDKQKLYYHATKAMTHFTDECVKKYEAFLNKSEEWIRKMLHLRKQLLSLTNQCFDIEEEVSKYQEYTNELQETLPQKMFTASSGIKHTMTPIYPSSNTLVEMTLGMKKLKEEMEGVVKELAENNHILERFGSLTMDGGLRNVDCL
The test is described as follows: co-IP.

Amino acid sequences for entries named in this document (tags omitted).
UniProt Q7Z434: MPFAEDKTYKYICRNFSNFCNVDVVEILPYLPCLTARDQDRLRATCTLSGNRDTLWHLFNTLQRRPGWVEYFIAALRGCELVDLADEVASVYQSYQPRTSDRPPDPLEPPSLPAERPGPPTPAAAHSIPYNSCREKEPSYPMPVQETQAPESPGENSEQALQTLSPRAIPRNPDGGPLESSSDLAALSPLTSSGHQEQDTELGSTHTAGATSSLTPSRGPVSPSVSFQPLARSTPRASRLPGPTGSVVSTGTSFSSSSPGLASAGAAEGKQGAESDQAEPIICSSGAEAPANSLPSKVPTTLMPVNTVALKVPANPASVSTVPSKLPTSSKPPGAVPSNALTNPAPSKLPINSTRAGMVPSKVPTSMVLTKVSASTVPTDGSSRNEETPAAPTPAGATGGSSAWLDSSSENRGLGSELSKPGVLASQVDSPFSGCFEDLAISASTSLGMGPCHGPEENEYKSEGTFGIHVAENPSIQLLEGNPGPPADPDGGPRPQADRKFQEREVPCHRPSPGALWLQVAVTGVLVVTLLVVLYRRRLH

Results are given in words; binding and its absence hold for the method and conditions named. Binding seen in cells or lysates may run through a third protein. Where a sequence is shown, tags or fusion partners need not be part of it.

B1: HA-tagged HACE1 (HECT domain and ankyrin repeat-containing E3 ubiquitin protein ligase 1) (enzyme, UniProt Q8IYU2 1-909)
chain: MERAMEQLNRLTRSLRRARTVELPEDNETAVYTLMPMVMADQHRSVSELLSNSKFDVNYAFGRVKRSLLHIAANCGSVECLVLLLKKGANPNYQDISGCTPLHLAARNGQKKCMSKLLEYSADVNICNNEGLTAIHWLAVNGRTELLHDLVQHVSDVDVEDAMGQTALHVACQNGHKTTVQCLLDSGADINRPNVSGATPLYFACSHGQRDTAQILLLRGAKYLPDKNGVTPLDLCVQGGYGETCEVLIQYHPRLFQTIIQMTQNEDLRENMLRQVLEHLSQQSESQYLKILTSLAEVATTNGHKLLSLSSNYDAQMKSLLRIVRMFCHVFRIGPSSPSNGIDMGYNGNKTPRSQVFKPLELLWHSLDEWLVLIATELMKNKRDSTEITSILLKQKGQDQDAASIPPFEPPGPGSYENLSTGTRESKPDALAGRQEASADCQDVISMTANRLSAVIQAFYMCCSCQMPPGMTSPRFIEFVCKHDEVLKCFVNRNPKIIFDHFHFLLECPELMSRFMHIIKAQPFKDRCEWFYEHLHSGQPDSDMVHRPVNENDILLVHRDSIFRSSCEVVSKANCAKLKQGIAVRFHGEEGMGQGVVREWFDILSNEIVNPDYALFTQSADGTTFQPNSNSYVNPDHLNYFRFAGQILGLALNHRQLVNIYFTRSFYKHILGIPVNYQDVASIDPEYAKNLQWILDNDISDLGLELTFSVETDVFGAMEEVPLKPGGGSILVTQNNKAEYVQLVTELRMTRAIQPQINAFLQGFHMFIPPSLIQLFDEYELELLLSGMPEIDVSDWIKNTEYTSGYEREDPVIQWFWEVVEDITQEERVLLLQFVTGSSRVPHGGFANIMGGSGLQNFTIAAVPYTPNLLPTSSTCINMLKLPEYPSKEILKDRLLVALHCGSYGYTMA
With B1, the binding result in test [1] and in test [2] was “no binding” throughout.

Source of the values: article PMC4885101.
